Some of the results follow.
What was measured:
Assay in all cases: log2 fold change, soluble protein after heating vs DMSO (PISA); higher = thermal stabilisation; K562 lysate, 10 uM; active = over 0.2 and 3.5 SD of the protein, either way, in both replicates (recomputed)
vemurafenib = compound: CCCS(=O)(=O)Nc1ccc(F)c(C(=O)c2c[nH]c3ncc(-c4ccc(Cl)cc4)cc23)c1F [vemurafenib]
Method in brief: (§1)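 Following dounce homogenisation of K562 pellets in PBS pH 7.4 with 1 mM MgCl2, crude extract at 1 mg/mL protein was incubated for 30 min with 10 μM compound. Aliquots were then heated for 3 min over 48°C-58°C and pooled, NP-40 was added to 0.5% at 4°C, and soluble protein was recovered as the supernatant at 21,000xg for 90 min. Channel-sum-equalised TMTpro 16plex LC-MS/MS quantified this protein. Each value, from duplicates, is a log-two fold change in thermal stability relative to solvent controls.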

Amino acid sequences for entries named in this document (tags omitted). A change or cut given only in a name is not applied to a line headed by its entry.
UniProt Q08117: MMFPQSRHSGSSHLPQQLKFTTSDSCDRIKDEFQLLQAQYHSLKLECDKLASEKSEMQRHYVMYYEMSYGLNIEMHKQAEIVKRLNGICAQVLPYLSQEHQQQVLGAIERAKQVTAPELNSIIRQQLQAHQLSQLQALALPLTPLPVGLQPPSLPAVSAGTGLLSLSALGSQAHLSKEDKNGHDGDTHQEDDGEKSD
UniProt Q8IUX1: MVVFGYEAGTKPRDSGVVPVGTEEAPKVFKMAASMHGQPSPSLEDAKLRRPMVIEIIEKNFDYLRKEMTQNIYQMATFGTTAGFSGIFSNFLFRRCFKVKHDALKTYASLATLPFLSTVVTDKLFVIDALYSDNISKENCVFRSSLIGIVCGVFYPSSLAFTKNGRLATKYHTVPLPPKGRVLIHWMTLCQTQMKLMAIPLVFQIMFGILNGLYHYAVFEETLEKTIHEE
UniProt Q7Z7H5: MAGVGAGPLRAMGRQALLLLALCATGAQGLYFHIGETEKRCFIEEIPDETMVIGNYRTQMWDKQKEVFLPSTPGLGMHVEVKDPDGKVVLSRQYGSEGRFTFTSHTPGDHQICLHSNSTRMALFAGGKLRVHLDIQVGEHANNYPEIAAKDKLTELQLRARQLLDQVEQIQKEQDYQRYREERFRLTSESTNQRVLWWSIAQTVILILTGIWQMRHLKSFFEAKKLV
UniProt Q07157: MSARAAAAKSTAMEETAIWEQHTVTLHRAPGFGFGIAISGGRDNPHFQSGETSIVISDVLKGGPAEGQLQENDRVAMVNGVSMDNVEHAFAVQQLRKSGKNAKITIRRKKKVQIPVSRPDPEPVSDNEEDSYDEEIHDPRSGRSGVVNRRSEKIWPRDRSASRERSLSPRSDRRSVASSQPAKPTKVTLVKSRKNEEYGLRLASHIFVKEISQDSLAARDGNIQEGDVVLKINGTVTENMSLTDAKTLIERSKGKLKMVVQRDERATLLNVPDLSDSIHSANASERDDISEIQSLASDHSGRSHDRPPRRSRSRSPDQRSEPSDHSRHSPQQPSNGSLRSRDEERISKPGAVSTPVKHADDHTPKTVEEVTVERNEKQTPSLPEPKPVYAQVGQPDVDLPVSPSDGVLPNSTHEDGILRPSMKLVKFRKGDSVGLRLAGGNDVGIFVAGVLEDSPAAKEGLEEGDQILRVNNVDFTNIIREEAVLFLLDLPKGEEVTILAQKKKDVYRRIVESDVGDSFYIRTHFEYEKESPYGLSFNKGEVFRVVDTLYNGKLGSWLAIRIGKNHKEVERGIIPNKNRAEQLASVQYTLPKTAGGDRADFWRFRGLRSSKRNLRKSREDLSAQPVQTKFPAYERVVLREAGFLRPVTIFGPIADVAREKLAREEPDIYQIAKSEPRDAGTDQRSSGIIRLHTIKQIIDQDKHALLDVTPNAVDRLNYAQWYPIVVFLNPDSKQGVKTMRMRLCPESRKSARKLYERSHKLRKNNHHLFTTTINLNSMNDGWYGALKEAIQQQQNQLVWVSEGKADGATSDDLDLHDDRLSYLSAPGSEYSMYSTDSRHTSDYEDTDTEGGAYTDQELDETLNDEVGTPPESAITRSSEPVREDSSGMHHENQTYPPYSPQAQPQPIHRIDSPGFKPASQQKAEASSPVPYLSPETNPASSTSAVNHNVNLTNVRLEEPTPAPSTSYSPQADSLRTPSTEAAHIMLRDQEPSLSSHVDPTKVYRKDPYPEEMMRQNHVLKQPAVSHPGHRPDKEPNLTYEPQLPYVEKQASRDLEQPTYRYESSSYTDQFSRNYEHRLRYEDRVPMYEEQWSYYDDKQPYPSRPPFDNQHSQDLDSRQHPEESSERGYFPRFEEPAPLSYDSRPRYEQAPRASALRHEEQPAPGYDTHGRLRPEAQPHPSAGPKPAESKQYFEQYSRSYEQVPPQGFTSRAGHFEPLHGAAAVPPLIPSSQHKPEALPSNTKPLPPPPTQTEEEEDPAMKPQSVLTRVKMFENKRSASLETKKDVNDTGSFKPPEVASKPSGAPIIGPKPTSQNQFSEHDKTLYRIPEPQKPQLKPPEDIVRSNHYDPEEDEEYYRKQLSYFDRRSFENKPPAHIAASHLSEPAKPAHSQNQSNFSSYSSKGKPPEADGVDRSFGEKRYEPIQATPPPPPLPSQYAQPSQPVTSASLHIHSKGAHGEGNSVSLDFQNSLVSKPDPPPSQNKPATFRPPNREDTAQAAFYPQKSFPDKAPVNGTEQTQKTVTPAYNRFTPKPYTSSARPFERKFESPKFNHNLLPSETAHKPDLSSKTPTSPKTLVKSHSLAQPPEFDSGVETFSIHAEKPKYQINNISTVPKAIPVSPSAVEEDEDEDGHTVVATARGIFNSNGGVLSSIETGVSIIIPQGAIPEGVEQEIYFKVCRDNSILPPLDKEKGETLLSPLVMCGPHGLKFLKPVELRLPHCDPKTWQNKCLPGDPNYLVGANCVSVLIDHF
UniProt P49755: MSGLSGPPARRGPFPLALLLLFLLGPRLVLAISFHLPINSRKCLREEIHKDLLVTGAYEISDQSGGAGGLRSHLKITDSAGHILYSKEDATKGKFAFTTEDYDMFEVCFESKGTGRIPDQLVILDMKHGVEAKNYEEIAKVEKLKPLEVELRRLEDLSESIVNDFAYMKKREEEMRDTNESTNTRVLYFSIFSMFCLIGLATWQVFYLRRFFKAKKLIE
UniProt Q96RS0: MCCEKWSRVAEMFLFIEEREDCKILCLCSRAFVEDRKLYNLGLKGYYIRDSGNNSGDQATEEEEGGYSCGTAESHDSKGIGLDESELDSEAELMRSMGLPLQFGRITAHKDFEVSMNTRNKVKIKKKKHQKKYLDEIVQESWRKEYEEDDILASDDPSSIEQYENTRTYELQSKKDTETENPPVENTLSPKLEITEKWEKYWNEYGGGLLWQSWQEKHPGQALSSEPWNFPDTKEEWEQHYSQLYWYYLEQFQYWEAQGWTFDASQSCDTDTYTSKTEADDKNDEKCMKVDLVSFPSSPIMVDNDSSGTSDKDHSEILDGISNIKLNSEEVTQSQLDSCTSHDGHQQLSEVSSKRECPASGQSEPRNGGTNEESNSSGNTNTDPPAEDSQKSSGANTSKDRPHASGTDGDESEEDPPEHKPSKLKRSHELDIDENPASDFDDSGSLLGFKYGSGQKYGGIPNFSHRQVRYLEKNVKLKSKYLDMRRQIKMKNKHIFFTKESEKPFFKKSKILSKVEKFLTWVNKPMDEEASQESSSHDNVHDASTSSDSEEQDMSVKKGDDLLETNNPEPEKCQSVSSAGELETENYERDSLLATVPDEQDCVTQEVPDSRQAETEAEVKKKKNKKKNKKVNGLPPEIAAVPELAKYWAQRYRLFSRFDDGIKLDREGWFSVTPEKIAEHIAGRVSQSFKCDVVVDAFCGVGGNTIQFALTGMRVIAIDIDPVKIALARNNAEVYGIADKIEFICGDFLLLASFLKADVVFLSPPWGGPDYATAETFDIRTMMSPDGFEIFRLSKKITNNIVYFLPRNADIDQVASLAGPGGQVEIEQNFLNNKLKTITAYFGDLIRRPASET
UniProt Q9P016: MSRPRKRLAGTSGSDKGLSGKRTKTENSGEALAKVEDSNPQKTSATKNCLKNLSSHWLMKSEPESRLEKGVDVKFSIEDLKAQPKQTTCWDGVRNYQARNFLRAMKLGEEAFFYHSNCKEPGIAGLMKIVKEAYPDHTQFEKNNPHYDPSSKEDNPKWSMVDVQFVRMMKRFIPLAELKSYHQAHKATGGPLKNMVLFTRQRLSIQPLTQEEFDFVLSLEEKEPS
UniProt Q9NXG2: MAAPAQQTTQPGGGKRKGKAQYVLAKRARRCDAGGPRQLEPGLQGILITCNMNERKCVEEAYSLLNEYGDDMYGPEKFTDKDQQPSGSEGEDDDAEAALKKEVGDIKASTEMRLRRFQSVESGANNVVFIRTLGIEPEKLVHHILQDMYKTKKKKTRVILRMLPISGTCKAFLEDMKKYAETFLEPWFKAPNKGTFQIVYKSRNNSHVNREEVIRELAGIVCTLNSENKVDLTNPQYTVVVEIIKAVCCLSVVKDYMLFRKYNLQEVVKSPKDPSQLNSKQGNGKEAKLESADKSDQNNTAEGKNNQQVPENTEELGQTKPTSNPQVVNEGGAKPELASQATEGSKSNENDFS
UniProt O43493: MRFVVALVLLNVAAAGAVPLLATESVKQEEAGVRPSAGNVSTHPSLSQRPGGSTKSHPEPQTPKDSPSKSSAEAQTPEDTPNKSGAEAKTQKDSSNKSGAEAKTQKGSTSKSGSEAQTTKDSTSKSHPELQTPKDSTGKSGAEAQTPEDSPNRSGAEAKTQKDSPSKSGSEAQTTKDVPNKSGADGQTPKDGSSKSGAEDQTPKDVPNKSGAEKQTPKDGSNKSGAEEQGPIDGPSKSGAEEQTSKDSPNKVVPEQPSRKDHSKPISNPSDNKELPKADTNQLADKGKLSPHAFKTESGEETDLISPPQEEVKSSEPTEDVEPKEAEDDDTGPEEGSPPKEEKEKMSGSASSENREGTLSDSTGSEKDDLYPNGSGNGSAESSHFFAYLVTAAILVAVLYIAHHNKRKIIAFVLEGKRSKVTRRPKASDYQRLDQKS
UniProt O60220: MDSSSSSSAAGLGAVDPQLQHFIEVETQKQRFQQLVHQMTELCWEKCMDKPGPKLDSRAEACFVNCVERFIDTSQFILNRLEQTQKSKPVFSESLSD
UniProt P55061, whole entry, looked up: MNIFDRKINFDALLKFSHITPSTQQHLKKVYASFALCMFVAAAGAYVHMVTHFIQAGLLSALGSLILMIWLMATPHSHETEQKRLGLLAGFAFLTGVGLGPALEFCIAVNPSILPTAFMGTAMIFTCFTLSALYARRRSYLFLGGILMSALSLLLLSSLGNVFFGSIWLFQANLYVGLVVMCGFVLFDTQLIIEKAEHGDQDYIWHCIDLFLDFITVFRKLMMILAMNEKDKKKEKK
UniProt Q9NX00: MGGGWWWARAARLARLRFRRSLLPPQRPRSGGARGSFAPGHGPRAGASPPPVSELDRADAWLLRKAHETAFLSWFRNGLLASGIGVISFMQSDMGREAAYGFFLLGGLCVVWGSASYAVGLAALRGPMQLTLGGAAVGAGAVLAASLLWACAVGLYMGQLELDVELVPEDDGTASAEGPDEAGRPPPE
UniProt Q9Y2S6, whole entry, looked up: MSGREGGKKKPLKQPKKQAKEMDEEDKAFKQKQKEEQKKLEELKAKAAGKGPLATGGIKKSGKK
UniProt Q9BZW5, whole entry, looked up: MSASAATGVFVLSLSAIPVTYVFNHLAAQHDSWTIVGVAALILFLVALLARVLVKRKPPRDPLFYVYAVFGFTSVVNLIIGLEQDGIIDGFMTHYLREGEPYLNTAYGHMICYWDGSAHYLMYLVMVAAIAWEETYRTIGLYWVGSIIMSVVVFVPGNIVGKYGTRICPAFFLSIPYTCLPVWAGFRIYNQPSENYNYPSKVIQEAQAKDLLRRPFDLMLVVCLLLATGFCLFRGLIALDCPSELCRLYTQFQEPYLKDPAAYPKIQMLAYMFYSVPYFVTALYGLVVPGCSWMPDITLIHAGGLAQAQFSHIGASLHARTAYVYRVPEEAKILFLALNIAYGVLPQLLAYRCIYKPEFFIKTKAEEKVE
UniProt Q96I45: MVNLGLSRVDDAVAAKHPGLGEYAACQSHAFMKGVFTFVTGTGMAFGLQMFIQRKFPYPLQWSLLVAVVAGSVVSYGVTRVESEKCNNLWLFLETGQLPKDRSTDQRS
UniProt Q9NS93: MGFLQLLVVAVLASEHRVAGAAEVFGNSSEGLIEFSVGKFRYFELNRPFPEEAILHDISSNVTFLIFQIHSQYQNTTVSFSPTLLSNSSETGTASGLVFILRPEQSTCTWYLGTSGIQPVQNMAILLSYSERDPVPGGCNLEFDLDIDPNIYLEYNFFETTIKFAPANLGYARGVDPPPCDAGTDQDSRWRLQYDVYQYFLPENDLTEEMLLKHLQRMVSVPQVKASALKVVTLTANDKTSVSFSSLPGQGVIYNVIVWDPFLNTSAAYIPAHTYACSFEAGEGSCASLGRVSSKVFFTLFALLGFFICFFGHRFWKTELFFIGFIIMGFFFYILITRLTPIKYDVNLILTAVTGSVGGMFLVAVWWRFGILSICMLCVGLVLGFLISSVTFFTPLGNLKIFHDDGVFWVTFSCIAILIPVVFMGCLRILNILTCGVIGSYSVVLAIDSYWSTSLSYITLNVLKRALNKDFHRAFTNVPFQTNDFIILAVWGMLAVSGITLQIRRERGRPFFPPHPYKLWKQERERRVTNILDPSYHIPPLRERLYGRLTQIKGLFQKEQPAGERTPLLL
UniProt Q9P2C4: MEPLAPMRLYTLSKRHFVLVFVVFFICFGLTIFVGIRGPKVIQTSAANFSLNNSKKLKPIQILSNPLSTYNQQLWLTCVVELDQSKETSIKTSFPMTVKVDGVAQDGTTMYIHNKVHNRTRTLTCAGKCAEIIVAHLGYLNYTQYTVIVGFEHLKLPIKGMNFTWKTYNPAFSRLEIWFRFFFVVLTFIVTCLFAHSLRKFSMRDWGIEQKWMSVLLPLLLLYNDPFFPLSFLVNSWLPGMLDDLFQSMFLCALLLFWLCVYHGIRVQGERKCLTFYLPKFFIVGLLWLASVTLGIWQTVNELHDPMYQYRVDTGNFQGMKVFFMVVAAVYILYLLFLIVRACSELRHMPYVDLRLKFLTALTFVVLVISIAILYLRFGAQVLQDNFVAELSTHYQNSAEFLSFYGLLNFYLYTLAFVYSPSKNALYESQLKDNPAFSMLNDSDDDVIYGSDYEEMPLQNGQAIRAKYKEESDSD

[1] = compound: CCCS(=O)(=O)Nc1ccc(F)c(C(=O)c2c[nH]c3ncc(Cl)cc23)c1F
Method in brief: as §1

barasertib = compound: CCN(CCCOc1ccc2c(Nc3cc(CC(=O)Nc4cccc(F)c4)[nH]n3)ncnc2c1)CCOP(=O)(O)O [barasertib]
Method in brief: as §1

[2] = compound: CC[C@@H]1C(=O)N(C)c2cnc(Nc3ccc(C(=O)NC4CCN(C)CC4)cc3OC)nc2N1C1CCCC1
Method in brief: as §1

volasertib = compound: CC[C@@H]1C(=O)N(C)c2cnc(Nc3ccc(C(=O)N[C@H]4CC[C@H](N5CCN(CC6CC6)CC5)CC4)cc3OC)nc2N1C(C)C [volasertib]
Method in brief: as §1

[3] = compound: CCn1c(C(=O)N(C2CC2)C2CC2)cc2c3c(ncn3C)c(Nc3cc(C)n(C)n3)nc21
Method in brief: as §1

[4] = compound: CCn1cc(-c2ccnc3[nH]c(-c4cccc(CN(C)C)c4)cc23)c(-c2ccc(NC(=O)N(C)C)cc2)n1
Method in brief: as §1

[5] = compound: CN1CCC(CNc2ccc3ncc(-c4cccc(OC(F)(F)F)c4)n3n2)CC1
Method in brief: as §1

saracatinib = compound: CN1CCN(CCOc2cc(OC3CCOCC3)c3c(Nc4c(Cl)ccc5c4OCO5)ncnc3c2)CC1 [saracatinib]
Method in brief: as §1

sotrastaurin = compound: CN1CCN(c2nc(C3=C(c4c[nH]c5ccccc45)C(=O)NC3=O)c3ccccc3n2)CC1 [sotrastaurin]
Method in brief: as §1

Measured: log2 fold change

TLE5 isoform 2 (UniProt Q08117)
inactive: vemurafenib -0.019 | [1] -0.005 | barasertib -0.091 | [2] -0.026 | volasertib 0.025 | [3] -0.08 | [4] -0.04 | [5] -0.076 | saracatinib 0.063 | sotrastaurin 0.043

TMEM126B (UniProt Q8IUX1)
inactive: vemurafenib -0.009 | [1] 0.061 | barasertib 0.047 | [2] -0.003 | volasertib 0.003 | [3] 0.006 | [4] -0.067 | [5] 0 | saracatinib -0.041 | sotrastaurin 0.045

TMA16 (UniProt Q96EY4)
inactive: vemurafenib -0.016 | [1] 0 | barasertib -0.047 | [2] -0.052 | volasertib 0.038 | [3] 0.036 | [4] 0.032 | [5] -0.048 | saracatinib -0.004 | sotrastaurin -0.033

TMED4 (UniProt Q7Z7H5)
inactive: vemurafenib -0.035 | [1] 0.006 | barasertib -0.119 | [2] -0.013 | volasertib 0.044 | [3] -0.017 | [4] 0.475 | [5] -0.019 | saracatinib 0 | sotrastaurin 0.04

TJP1 isoform 2 (UniProt Q07157)
inactive: vemurafenib 0.023 | [1] 0 | barasertib -0.003 | [2] 0.064 | volasertib -0.01 | [3] -0.045 | [4] -0.046 | [5] 0.057 | saracatinib 0.014 | sotrastaurin 0.014

2 neighbouring records already listed, for reference:
TMA16 (UniProt Q96EY4)
inactive: vemurafenib -0.016 | [1] 0 | barasertib -0.047 | [2] -0.052 | volasertib 0.038 | [3] 0.036 | [4] 0.032 | [5] -0.048 | saracatinib -0.004 | sotrastaurin -0.033

TMED4 (UniProt Q7Z7H5)
inactive: vemurafenib -0.035 | [1] 0.006 | barasertib -0.119 | [2] -0.013 | volasertib 0.044 | [3] -0.017 | [4] 0.475 | [5] -0.019 | saracatinib 0 | sotrastaurin 0.04

Further entries

TMED10 (UniProt P49755)
inactive: vemurafenib 0 | [1] -0.009 | barasertib -0.008 | [2] 0.078 | volasertib 0.011 | [3] 0.008 | [4] 0.074 | [5] -0.117 | saracatinib -0.005 | sotrastaurin -0.051

TGS1 (UniProt Q96RS0)
inactive: vemurafenib -0.011 | [1] 0.029 | barasertib 0.015 | [2] -0.013 | volasertib -0.02 | [3] 0.002 | [4] -0.097 | [5] 0.05 | saracatinib 0 | sotrastaurin 0.028

TIA1 (UniProt P31483)
inactive: vemurafenib 0.025 | [1] 0.005 | barasertib -0.048 | [2] -0.044 | volasertib 0.038 | [3] 0.02 | [4] -0.027 | [5] 0.005 | saracatinib 0.039 | sotrastaurin -0.026

THYN1 (UniProt Q9P016)
inactive: vemurafenib -0.065 | [1] 0.003 | barasertib 0.012 | [2] -0.062 | volasertib -0.007 | [3] 0.037 | [4] 0.057 | [5] -0.079 | saracatinib -0.02 | sotrastaurin 0.015

TMEM126A (UniProt Q9H061)
inactive: vemurafenib 0.019 | [1] 0.02 | barasertib -0.017 | [2] 0.023 | volasertib 0.002 | [3] -0.014 | [4] -0.021 | [5] -0.009 | saracatinib 0 | sotrastaurin -0.052

THUMPD1 (UniProt Q9NXG2)
inactive: vemurafenib -0.029 | [1] -0.016 | barasertib -0.026 | [2] -0.007 | volasertib 0.023 | [3] -0.022 | [4] -0.061 | [5] 0.046 | saracatinib -0.022 | sotrastaurin 0.008

TIMP1 (UniProt P01033)
inactive: vemurafenib -0.05 | [1] 0.027 | barasertib 0.034 | [2] 0.033 | volasertib 0.018 | [3] -0.051 | [4] -0.002 | [5] 0.049 | saracatinib 0.029 | sotrastaurin -0.009

TGOLN2 isoform 7 (UniProt O43493)
inactive: vemurafenib 0.02 | [1] 0.023 | barasertib -0.023 | [2] 0.05 | volasertib 0.035 | [3] -0.094 | [4] -0.012 | [5] 0.036 | saracatinib -0.033 | sotrastaurin 0.06

THG1L (UniProt Q9NWX6)
inactive: vemurafenib 0.019 | [1] -0.005 | barasertib -0.009 | [2] 0.024 | volasertib -0.023 | [3] 0.018 | [4] 0.035 | [5] -0.027 | saracatinib 0.012 | sotrastaurin 0.014

TLE3 isoform 4 (UniProt Q04726)
inactive: vemurafenib 0.009 | [1] 0.01 | barasertib 0.005 | [2] 0.065 | volasertib 0.021 | [3] 0.027 | [4] -0.001 | [5] 0.01 | saracatinib 0.017 | sotrastaurin -0.017

TIMMDC1 (UniProt Q9NPL8)
inactive: vemurafenib -0.076 | [1] -0.006 | barasertib 0.001 | [2] 0.074 | volasertib 0.029 | [3] 0.001 | [4] -0.023 | [5] -0.023 | saracatinib 0.005 | sotrastaurin -0.023

TIMM8A (UniProt O60220)
inactive: vemurafenib 0.026 | [1] -0.091 | barasertib -0.019 | [2] -0.223 | volasertib -0.006 | [3] 0.037 | [4] 0.028 | [5] -0.007 | saracatinib 0.084 | sotrastaurin -0.009

TMBIM6 isoform 2 (UniProt P55061)
inactive: vemurafenib -0.043 | [1] 0.034 | barasertib 0.02 | [2] -0.01 | volasertib 0.055 | [3] -0.025 | [4] -0.016 | [5] -0.004 | saracatinib 0.024 | sotrastaurin -0.074

THADA (UniProt Q6YHU6)
inactive: vemurafenib -0.006 | [1] 0.007 | barasertib 0.038 | [2] -0.028 | volasertib -0.037 | [3] 0.019 | [4] -0.029 | [5] 0.02 | saracatinib 0.029 | sotrastaurin 0.037

TMEM160 (UniProt Q9NX00)
inactive: vemurafenib 0.237 | [1] 0.091 | barasertib 0.038 | [2] -0.104 | volasertib -0.027 | [3] 0.06 | [4] -0.137 | [5] 0.026 | saracatinib -0.049 | sotrastaurin -0.034

TMA7 (UniProt Q9Y2S6)
inactive: vemurafenib 0.026 | [1] -0.046 | barasertib -0.032 | [2] -0.012 | volasertib 0.015 | [3] -0.014 | [4] -0.106 | [5] 0.078 | saracatinib 0.016 | sotrastaurin -0.017

TM6SF1 (UniProt Q9BZW5)
inactive: vemurafenib 0.052 | [1] 0 | barasertib 0.056 | [2] 0.105 | volasertib 0.012 | [4] -0.104 | [5] 0.179 | saracatinib 0.002 | sotrastaurin 0.056

TMEM141 (UniProt Q96I45)
inactive: vemurafenib 0.036 | [1] 0.078 | barasertib 0.054 | volasertib 0.016 | [3] -0.002 | [4] -0.058 | [5] 0.036 | saracatinib 0.001 | sotrastaurin 0.181

TMC1 (UniProt Q8TDI8)
inactive: vemurafenib 0.089 | [1] -0.02 | [2] -0.164 | volasertib -0.021 | [3] -0.059 | sotrastaurin 0.141

TM7SF3 (UniProt Q9NS93)
inactive: vemurafenib -0.006 | barasertib 0.143 | [2] -0.052 | [3] -0.012 | [4] 0.162 | [5] -0.126 | saracatinib 0.05 | sotrastaurin -0.103

TMEM181 (UniProt Q9P2C4)
inactive: vemurafenib 0.056 | [1] 0.015 | barasertib 0.037 | [2] 0.091 | volasertib 0.036 | [3] 0.025 | [4] 0.124 | [5] -0.004 | saracatinib -0.017 | sotrastaurin 0.052

TIMM10 (UniProt P62072)
inactive: vemurafenib -0.092 | [1] 0.018 | barasertib 0.01 | [2] -0.216 | volasertib -0.007 | [3] 0.013 | [4] -0.09 | [5] 0.087 | saracatinib 0.008 | sotrastaurin 0.004

TMEM14C (UniProt Q9P0S9)
inactive: vemurafenib 0.027 | [1] 0.087 | barasertib -0.038 | [2] 0.129 | volasertib 0.045 | [3] -0.053 | saracatinib -0.088 | sotrastaurin 0.06

Reference: the supplement of paper PMC10849652
